Patent publication US20250066417A9 (ENLITISA (SHANGHAI) PHARMACEUTICAL CO., LTD., priority 2021, published 2025)
Where no end group is shown, it is not given here. [ ]: non-standard residue; d: D form. Dopa = N[C@@H](Cc1ccc(O)c(O)c1)C(=O)O; Hyp = O=C(O)[C@@H]1C[C@@H](O)CN1

Experiment: general procedure: Fmoc solid-phase peptide synthesis; Fmoc-Lys(Fmoc)-Wang resin; Fmoc-Lys(Boc)-Wang resin (GL Biochem)
Details: whole synthesis, HPLC, UV at 220 nm (Shimadzu LCMS-8050 / LC-20, ZORBAX Eclipse SB-C18), acetate
With AKPSY[Hyp]TY[Hyp]K the “final HPLC purity” value was 98%.
For AKPSY[Hyp]T[Dopa][Hyp]K, the “crude HPLC purity” value was 75.674%.
With AKPSY[Hyp][Hyp]TY[Hyp]K the “crude HPLC purity” value was 72.868%.
For AKPSY[Hyp][Hyp]T[Dopa][Hyp]K, the “crude HPLC purity” value was 73.943%.
For KPSY[Hyp]TY[Hyp]K, the “crude HPLC purity” value was 79.035%.
With KPSY[Hyp]T[Dopa][Hyp]K the “crude HPLC purity” value was 78.932%.
In the case of KPSY[Hyp][Hyp]TY[Hyp]K, the “crude HPLC purity” value is reported as 73.958%.
In the case of KPSY[Hyp][Hyp]T[Dopa][Hyp]K, the “crude HPLC purity” value is reported as 76.035%.
With SKPSY[Hyp]TY[Hyp]K the “crude HPLC purity” value was 76.229%.
With SKPSY[Hyp]T[Dopa][Hyp]K the “crude HPLC purity” value was 77.018%.
With SKPSY[Hyp][Hyp]TYK the “crude HPLC purity” value was 75.338%.
For SKPSY[Hyp][Hyp]T[Dopa]K, the “crude HPLC purity” value was 76.933%.

Same assay, conditions: whole synthesis, UV 220 nm, acetate
In the case of AKPSY[Hyp]TY[Hyp]K, the “crude HPLC purity” value is reported as 79.363%.
